Values of other authors, collected in patent publication US20250318525A1, “COMPOSITIONS TO CONTROL THE RELEASE RATES OF CHEMICAL PESTICIDES” (priority 2020, published 2025).
At least one compound was matched to its structure with a doubt left.

Settings: cited from earlier work

Row | Structure (SMILES) | Ksp
1 | [Ca+2].[OH-].[OH-] [Ca(OH)2] | 6.5×10^−6
2 | [Mg+2].[OH-].[OH-] [Mg(OH)2] | 1.8×10^−11
